Some test systems named below: GAPDHS (human); GAST (human); GATA3 (human); GBE1 (human); GBP1 (human); GBP6 (human); GCA (human); GCHFR (human); GDF2 (human); GDI1 (human); GDPD3 (human); GDPD5 (human); GFPT1 (human); GGA2 (human); GGPS1 (human); GGT6 (human); GH1 (human); GHRL (human).
What all share (experiment): protein microarray (ProtoArray v5.0), streptavidin-Alexa Fluor 647
Details in all cases: 3'-biotin; 20 mM Tris (pH 7.5), 5 mM MgCl2, 100 mM KCl, 0.1% Tween-20, A/T-rich and random oligonucleotide blockers; temperature not stated; high values mean tight binding

The chains behind the UniProt entries cited, without tags or fusion partners. Where a name states a change or a piece, a line headed by the entry shows the natural chain unless it says otherwise.
UniProt P41250: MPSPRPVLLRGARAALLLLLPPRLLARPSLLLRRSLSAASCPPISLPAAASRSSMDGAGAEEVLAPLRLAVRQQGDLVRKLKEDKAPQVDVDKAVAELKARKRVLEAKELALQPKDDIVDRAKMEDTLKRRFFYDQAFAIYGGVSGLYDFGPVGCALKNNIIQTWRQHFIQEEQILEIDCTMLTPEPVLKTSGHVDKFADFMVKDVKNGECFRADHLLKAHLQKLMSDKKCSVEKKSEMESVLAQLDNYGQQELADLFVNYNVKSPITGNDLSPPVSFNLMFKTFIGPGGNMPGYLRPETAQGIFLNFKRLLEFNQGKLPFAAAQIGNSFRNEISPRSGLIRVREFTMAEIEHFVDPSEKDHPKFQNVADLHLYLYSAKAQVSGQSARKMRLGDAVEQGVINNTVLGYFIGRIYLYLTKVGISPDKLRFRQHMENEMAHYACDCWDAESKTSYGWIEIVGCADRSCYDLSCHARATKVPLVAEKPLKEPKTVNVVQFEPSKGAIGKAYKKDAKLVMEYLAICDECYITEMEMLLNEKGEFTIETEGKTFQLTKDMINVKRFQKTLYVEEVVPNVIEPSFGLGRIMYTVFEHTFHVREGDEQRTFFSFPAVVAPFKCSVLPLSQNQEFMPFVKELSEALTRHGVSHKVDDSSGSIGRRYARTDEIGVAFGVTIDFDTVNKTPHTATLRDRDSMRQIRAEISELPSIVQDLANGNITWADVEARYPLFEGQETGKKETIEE

In another assay the target is GARS (UniProt P41250).
The subject of assay [1] is GDP-mannose 4,6 dehydratase (human).

The other results are listed elsewhere or left out. For some assays here: The exact form of the protein is not confirmed.

Consider “GGGAGGCTGAGGCAGG [G4-1 biotinylated (PQS2)]”, for which the binding signal in the assay on GAPDHS (human) is -0.343 z-score; with GARS, -0.322 z-score; in the assay with GAST (human) it was -0.332 z-score; with GATA3 (human) it was -0.306 z-score; in the assay with GBE1 (human), -0.286 z-score; in the assay on GBP1 (human), -0.33 z-score. Moreover, the binding signal in the assay on GBP6 (human) is -0.337 z-score; in the assay on GCA (human), -0.345 z-score; in the assay with GCHFR (human), -0.305 z-score; in the assay with GDF2 (human), -0.299 z-score; in the assay with GDI1 (human), -0.306 z-score; in assay [1] it was -0.343 z-score. The binding signal with GDPD3 (human) is -0.29 z-score; in the assay on GDPD5 (human), -0.335 z-score; in the assay with GFPT1 (human), -0.317 z-score; in the assay with GGA2 (human), -0.348 z-score; with GGPS1 (human), -0.316 z-score; in the assay with GGT6 (human) it was -0.311 z-score. Besides, the figures for the binding signal with GH1 (human) and with GHRL (human) were -0.292 z-score and -0.289 z-score, respectively.
